# Data: US6368552B1, “Water treating agent and water treating method” (Kurita Water Industries Ltd., priority 1999, dated 2002)
# Assays:
# [1] = Corrosion prevention test with steel test pieces immersed in deionized water in a beaker; conditions: 100 mg chemical in 500 ml deionized water, normal temp., starting pH 5.5, 5 days
# [2] = Laboratory electric boiler test: corrosion of SPCC steel test pieces in steam condensate, 96 hours
# [3] = steam condensate at 50° C., 96 hours, chemicals at stated conc. (mg/l) in softened feed water, boiler 183° C., 1 MPa
Structure (SMILES),Corrosion rate [1] [mg/dm^2/day],"Corrosion rate [2, 3] [mg/dm^2/day]",Corrosion rate [2] [mg/dm^2/day]
"CCCCCCC1CCC(=O)O1 (stereo not drawn) [Example 2, γ-decalactone]",4.8,,
"CC=Cc1ccc(O)c(OC)c1 [Example 5, Isoeugenol]",4.7,173,
"C=CCc1ccc(O)c(OC)c1 [Example 4, Eugenol]",5.6,,
"CCN(CC)CCO [compound 5, Diethylethanolamine, reference compound]",,,195
"CCCCCC1CCC(=O)O1 (stereo not drawn) [Example 1, γ-nonalactone]",6.1,175,
"CCCCCCCC1CCC(=O)O1 (stereo not drawn) [Example 3, γ-undecalactone]",4.6,162,
